Reference: PubChem BioAssay AID651640 (Broad Institute, 2012)
Hit rate of the full screen: of about 350,000 compounds, about 6,000 (1.7%) were called active. Inconclusive means that the source gave no clear call. Such entries were picked first, then a sample of the others. No stated cut-off is given here; in the data, active means CPE inhibition above about 20% (passing the limit was not always enough); inconclusive means no clear call, values can overlap the other calls; tested in BHK-21 cells.

Assay: protection of cells from dengue 2 killing – plate reader, single concentration, primary screen (AID 651640);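 further: 0% = median of neutral control wells and 100% = median of positive control wells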
Settings: DENV2-infected cells, cytopathic effect rescue, at 9.99 µM, active compounds read high

SMILES | CPE inhibition
COC(=O)C(C(=O)OC)c1ccccc1CNS(=O)(=O)c1ccc(C)cc1 | inconclusive: 65.1%
O=C(C[C@@H]1CC[C@@H](NS(=O)(=O)c2ccccc2)[C@@H](CO)O1)N1CCC(Cc2ccccc2)CC1 | inconclusive: 36%
C[C@H]1CN([C@@H](C)CO)C(=O)c2cc(NS(=O)(=O)c3ccc(Cl)cc3)ccc2O[C@@H]1CN(C)C(=O)Nc1cccc2ccccc12 | inactive: 2.67%
O=c1[nH]c(-c2ccccc2)cn1C1CCN(Cc2ccc(-c3nc4ccc(F)cc4nc3-c3ccccc3)cc2)CC1 | active: 33.2%
C[C@@H]1CCCCO[C@@H](CN(C)S(=O)(=O)c2cccs2)[C@@H](C)CN([C@@H](C)CO)C(=O)c2cc(NC(=O)Nc3cccc4ccccc34)ccc2O1 | inactive: -10.3%
CCn1c(=O)c2sccc2n(CC(=O)NCCC2=CCCCC2)c1=O | inconclusive: 35.6%
COc1cc(NC(=O)Cn2cnc(S(=O)(=O)N3CCC(C)CC3)c2)cc(OC)c1OC | inconclusive: 28.1%
Cc1[nH]nc2c1C1(CCOCC1)C(C#N)=C(N)O2 | inconclusive: 24.9%
COc1ccc(C(c2sc3ncnn3c2O)N2CC(C)OC(C)C2)cc1OC (stereo not given) | active: 74.6%
O=C(Nc1ccc(Cl)cc1)c1csc(COCCO)n1 | inconclusive: 39.2%
CCN1/C(=N\N)c2cccc3cccc1c23 | inconclusive: 25.5%
CC(=O)N1C[C@@H]2[C@H](c3ccccc31)[C@H](CO)N2C(=O)c1ccc(F)cc1 | inactive: -1.43%
C[C@H](NC(=O)c1[nH]cnc1C(=O)Nc1ccccc1)c1ccccc1 | inconclusive: 26.1%
C[C@@H]1CN([C@H](C)CO)C(=O)c2cc(NS(=O)(=O)c3cn(C)cn3)ccc2O[C@@H](C)CCCCO[C@H]1CN(C)S(=O)(=O)c1ccc(F)cc1 | inactive: -7.95%
COc1cc(/C=C2\SC(N)=NC2=O)ccc1OCC(=O)Nc1ccccc1C | inconclusive: 45.3%
O=C(N/N=C/c1ccc(O)c(O)c1)c1cccc(S(=O)(=O)N2CCCC2)c1 | inconclusive: 21%
CC1C(=O)N(Cc2cn(CC3CCCCC3)nn2)CCS(=O)(=O)N1Cc1ccc(-c2ccc(Cl)c(Cl)c2)cc1 (stereo not given) | active: 56.6%
O=C(Nc1cc(Cl)ccc1N1CCOCC1)c1ccc(Br)o1 | inconclusive: 42.5%
COc1ccc(Nc2nc(NN)nc(C)c2[N+](=O)[O-])cc1 | inconclusive: 20%
C[C@@H]1CCCCO[C@@H](CN(C)S(=O)(=O)c2cn(C)cn2)[C@@H](C)CN([C@@H](C)CO)C(=O)c2cc(NC(=O)Nc3ccc(C(F)(F)F)cc3)ccc2O1 | inconclusive: 37.8%

Quoted from the listing.
`CC1C(=O)N(Cc2cn(CC3CCCCC3)nn2)CCS(=O)(=O)N1Cc1ccc(-c2ccc(Cl)c(Cl)c2)cc1` (stereo not given) – CPE inhibition: active: 56.6%
`Cc1[nH]nc2c1C1(CCOCC1)C(C#N)=C(N)O2` – CPE inhibition: inconclusive: 24.9%
